± gives the standard deviation. This is a selection; strong and weak results do not stand in their true shares. Many entries were measured with a wide error. The list shows a part of the results.
Tests used:
[1] = test system: MILI (PIWIL2) piRISC loaded with L1MC piRNA (26 nt); test: pre-steady-state target cleavage rate (min^-1); higher = faster piRNA-guided slicing of the target; conditions: guide: L1MC piRNA 5'p-UAACUAAAUACUAUGCAAGCUGUAGG
How it was run: (§1)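 Cleave-'n-Seq used a transcribed, DNA-blocked target RNA library at 0.1 nM and active affinity-purified piRISC with one synthetic guide at 1 nM, with or without 500 nM GTSF1 partner protein, in HEPES–potassium acetate buffer at 33 °C for 0–8 or 0–960 min. Uncleaved targets were sequenced and normalised to depth and to weakly complementary targets, and three trials were pooled with k3 capped at 0.0001 min^-1. The pre-steady-state cleavage rate was estimated by a burst-and-steady-state fit.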

[2] = test system: MIWI (PIWIL1) piRISC loaded with L1MC piRNA (30 nt); test: as above; conditions: guide: L1MC piRNA 5'p-UAACUAAAUACUAUGCAAGCUGUAGGUCCU
How it was run: as §1

[3] = test system: EfPiwi piRISC loaded with L1MC piRNA (26 nt); test: pre-steady-state target cleavage rate (min^-1); guide: L1MC piRNA 5'p-UAACUAAAUACUAUGCAAGCUGUAGG; MIWI and MILI are mouse PIWI proteins and EfPiwi is from a freshwater sponge; tags in brackets are library labels; higher = faster piRNA-guided slicing of the target
How it was run: as §1

[4] = auxiliary factor: none (no GTSF1)
[5] = auxiliary factor: 500 nM Ephydatia muelleri Gtsf1
[6] = auxiliary factor: 500 nM mouse GTSF1

Row | Sequence | pre-steady-state target cleavage rate [1, 4] | pre-steady-state target cleavage rate [2, 4] | pre-steady-state target cleavage rate [3, 5] | pre-steady-state target cleavage rate [1, 6] | pre-steady-state target cleavage rate [2, 6] | pre-steady-state target cleavage rate ([3]; auxiliary factor: none (no Gtsf1))
1 | UCCUCCUACAGCUUCCAUAGUAUUUAGAUA | 0.000242 ± 0.017 | 0.000983 ± 0.0074 | 0.00393 ± 0.0021 |  |  | 
2 | UCCUGGAUCAGCUUGCUAUCAUAAAUCAAA [g15:g22:cont:t1A] | 0.000431 ± 0.013 | 0.000334 ± 0.011 | 0.000154 ± 0.025 |  |  | 
3 | UCCUGGAUGUCCUUCCAUUGUAUUUAGUUA | 0.000342 ± 0.013 | 0.000517 ± 0.011 | 0.000251 ± 0.012 |  |  | 
4 | UCCUGGAUGUCGAUGCAUAGUAUUUUGUUA | 0.00191 ± 0.0035 | 0.00141 ± 0.007 | 0.00215 ± 0.0035 |  |  | 
5 | UCCUGCUACAGCUACGAUAGUAUUUAGAAA | 0.000656 ± 0.0077 | 0.000324 ± 0.0097 | 0.000288 ± 0.012 |  |  | 
6 | UCCUGGAACAGCUUCCAUAGUAAUUAGUUA | 0.000798 ± 0.0067 | 0.00177 ± 0.0033 | 0.00201 ± 0.0027 |  |  | 
7 | UCCUGGAUGUGCUUGCAUUCAAUUUAGUAA | 0.000657 ± 0.0075 | 0.000614 ± 0.012 | 0.000194 ± 0.022 |  |  | 
8 | UCCUGGAUGUCGAAGCAUUCUAUUUAGUUA | 0.000471 ± 0.0093 | 0.000588 ± 0.0058 | 0.00031 ± 0.0085 |  |  | 
9 | UCCUGGAACAGCUACGAUAGUAUUUAGUAA | 0.000579 ± 0.0073 | 0.000337 ± 0.0086 | 0.000324 ± 0.01 |  |  | 
10 | UCCUGGAACAGGAAGCAUAGUAUUUUCAAA | 0.000435 ± 0.0097 | 0.00069 ± 0.0078 | 0.000288 ± 0.01 |  |  | 
11 | UCCUGCUACAGCUUGCUAAGUAUUUAGAAA | 0.000913 ± 0.0077 | 0.000381 ± 0.0083 | 0.00164 ± 0.0034 |  |  | 
12 | UCCUCCUACCGCUUGCAUAGUAUUUAGUUA |  |  | 0.0865 ± 0.023 | 0.305 ± 0.015 | 1.34 ± 0.062 | 
13 | UCCUGGAUGAGGUUGCAUAGUAUUUAGAUA | 0.00123 ± 0.0055 | 0.00208 ± 0.0033 | 0.00218 ± 0.0024 |  |  | 
14 | UCCUGCUACAGCUUGCUAUGUAUUUACAAA | 0.000231 ± 0.012 | 0.000446 ± 0.013 |  |  |  | 0.000466 ± 0.015
15 | UCCUCCUACAGCUUGCAAUGUAUUUUCAAA | 0.000936 ± 0.0045 | 0.000726 ± 0.0062 | 0.0017 ± 0.0056 |  |  | 
16 | UCCUGGAUGUCGAUGCAUAGUAUUUUGAUA | 0.00063 ± 0.0076 | 0.000526 ± 0.011 | 0.00125 ± 0.0054 |  |  | 
17 | UCCUGGAUGUCCUUGCAUAGUAUUAGUUA | 0.000874 ± 0.0051 | 0.00147 ± 0.003 | 0.00218 ± 0.0056 |  |  | 
18 | UCCUGCAACAGCUUGCAUAGUAUUUUCAAA | 0.000783 ± 0.012 | 0.00248 ± 0.0042 | 0.00269 ± 0.0017 |  |  | 

A second format for part of the listing above:

| Row | Sequence | pre-steady-state target cleavage rate [1, 4] | pre-steady-state target cleavage rate [2, 4] | pre-steady-state target cleavage rate [3, 5] | pre-steady-state target cleavage rate [1, 6] | pre-steady-state target cleavage rate [2, 6] | pre-steady-state target cleavage rate ([3]; auxiliary factor: none (no Gtsf1)) |
| --- | --- | --- | --- | --- | --- | --- | --- |
| 9 | UCCUGGAACAGCUACGAUAGUAUUUAGUAA | 0.000579 ± 0.0073 | 0.000337 ± 0.0086 | 0.000324 ± 0.01 |  |  |  |
| 10 | UCCUGGAACAGGAAGCAUAGUAUUUUCAAA | 0.000435 ± 0.0097 | 0.00069 ± 0.0078 | 0.000288 ± 0.01 |  |  |  |

From the supplement of paper PMC10338343
